Results from the supplement of paper PMC10849652.
The other results are listed elsewhere or left out.

Chains of the proteins cited; added tags and fusions are not shown. Lines headed by an entry give the natural chain unless they say otherwise; changes in a name come on top.
UniProt Q7RTP6, whole entry, looked up: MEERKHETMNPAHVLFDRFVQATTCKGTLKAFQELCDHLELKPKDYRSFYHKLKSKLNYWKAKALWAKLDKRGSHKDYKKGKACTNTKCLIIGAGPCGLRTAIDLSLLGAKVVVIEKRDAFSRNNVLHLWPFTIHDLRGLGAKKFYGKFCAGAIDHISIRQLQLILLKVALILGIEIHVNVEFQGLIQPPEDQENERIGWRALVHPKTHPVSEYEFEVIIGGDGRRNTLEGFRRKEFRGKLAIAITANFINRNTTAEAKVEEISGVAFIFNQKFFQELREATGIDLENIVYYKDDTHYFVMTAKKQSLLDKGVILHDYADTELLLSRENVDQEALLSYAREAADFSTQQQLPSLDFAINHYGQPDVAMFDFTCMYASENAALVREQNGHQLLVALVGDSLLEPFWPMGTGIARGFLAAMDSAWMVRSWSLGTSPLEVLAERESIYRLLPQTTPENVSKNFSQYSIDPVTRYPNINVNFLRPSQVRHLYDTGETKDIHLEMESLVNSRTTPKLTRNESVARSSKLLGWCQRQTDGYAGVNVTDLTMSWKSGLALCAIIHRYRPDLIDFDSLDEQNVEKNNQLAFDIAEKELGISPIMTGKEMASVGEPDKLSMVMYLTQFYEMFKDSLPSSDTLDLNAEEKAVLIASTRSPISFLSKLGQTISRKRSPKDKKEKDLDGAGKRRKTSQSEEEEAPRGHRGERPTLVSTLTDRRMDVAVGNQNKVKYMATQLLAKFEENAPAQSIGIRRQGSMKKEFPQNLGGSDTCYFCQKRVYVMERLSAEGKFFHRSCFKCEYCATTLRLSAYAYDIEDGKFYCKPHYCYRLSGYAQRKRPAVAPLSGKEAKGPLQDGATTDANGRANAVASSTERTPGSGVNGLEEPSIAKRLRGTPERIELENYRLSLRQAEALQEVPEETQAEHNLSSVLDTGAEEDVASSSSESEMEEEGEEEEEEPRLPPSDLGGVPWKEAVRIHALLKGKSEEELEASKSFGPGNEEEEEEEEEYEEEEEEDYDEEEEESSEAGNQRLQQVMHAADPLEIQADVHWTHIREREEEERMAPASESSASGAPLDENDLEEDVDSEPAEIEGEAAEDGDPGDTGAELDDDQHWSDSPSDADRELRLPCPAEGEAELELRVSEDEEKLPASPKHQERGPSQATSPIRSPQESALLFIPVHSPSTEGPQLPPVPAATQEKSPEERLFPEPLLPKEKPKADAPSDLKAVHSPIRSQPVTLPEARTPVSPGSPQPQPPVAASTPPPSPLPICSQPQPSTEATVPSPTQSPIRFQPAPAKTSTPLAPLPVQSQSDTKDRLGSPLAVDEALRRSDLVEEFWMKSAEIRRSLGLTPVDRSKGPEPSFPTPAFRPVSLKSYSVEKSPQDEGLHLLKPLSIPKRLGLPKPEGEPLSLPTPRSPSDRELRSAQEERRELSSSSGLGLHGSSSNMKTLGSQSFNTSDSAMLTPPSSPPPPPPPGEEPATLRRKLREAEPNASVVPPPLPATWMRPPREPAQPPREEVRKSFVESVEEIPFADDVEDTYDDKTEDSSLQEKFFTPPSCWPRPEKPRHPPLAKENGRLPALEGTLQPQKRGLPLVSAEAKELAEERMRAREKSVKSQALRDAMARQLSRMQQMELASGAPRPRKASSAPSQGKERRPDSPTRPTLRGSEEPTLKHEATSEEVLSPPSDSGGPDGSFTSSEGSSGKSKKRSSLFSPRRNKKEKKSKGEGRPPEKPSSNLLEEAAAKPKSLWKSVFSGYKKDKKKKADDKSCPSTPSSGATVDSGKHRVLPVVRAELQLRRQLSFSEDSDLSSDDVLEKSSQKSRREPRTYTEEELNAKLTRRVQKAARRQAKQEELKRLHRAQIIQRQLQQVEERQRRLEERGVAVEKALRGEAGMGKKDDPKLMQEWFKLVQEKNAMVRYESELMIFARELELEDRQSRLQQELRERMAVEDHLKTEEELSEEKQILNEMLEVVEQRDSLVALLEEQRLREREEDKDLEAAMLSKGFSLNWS
UniProt P10620: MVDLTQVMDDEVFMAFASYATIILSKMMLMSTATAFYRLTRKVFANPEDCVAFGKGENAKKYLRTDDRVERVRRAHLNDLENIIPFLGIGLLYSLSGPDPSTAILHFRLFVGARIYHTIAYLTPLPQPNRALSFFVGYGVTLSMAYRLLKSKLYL
UniProt Q96EN8: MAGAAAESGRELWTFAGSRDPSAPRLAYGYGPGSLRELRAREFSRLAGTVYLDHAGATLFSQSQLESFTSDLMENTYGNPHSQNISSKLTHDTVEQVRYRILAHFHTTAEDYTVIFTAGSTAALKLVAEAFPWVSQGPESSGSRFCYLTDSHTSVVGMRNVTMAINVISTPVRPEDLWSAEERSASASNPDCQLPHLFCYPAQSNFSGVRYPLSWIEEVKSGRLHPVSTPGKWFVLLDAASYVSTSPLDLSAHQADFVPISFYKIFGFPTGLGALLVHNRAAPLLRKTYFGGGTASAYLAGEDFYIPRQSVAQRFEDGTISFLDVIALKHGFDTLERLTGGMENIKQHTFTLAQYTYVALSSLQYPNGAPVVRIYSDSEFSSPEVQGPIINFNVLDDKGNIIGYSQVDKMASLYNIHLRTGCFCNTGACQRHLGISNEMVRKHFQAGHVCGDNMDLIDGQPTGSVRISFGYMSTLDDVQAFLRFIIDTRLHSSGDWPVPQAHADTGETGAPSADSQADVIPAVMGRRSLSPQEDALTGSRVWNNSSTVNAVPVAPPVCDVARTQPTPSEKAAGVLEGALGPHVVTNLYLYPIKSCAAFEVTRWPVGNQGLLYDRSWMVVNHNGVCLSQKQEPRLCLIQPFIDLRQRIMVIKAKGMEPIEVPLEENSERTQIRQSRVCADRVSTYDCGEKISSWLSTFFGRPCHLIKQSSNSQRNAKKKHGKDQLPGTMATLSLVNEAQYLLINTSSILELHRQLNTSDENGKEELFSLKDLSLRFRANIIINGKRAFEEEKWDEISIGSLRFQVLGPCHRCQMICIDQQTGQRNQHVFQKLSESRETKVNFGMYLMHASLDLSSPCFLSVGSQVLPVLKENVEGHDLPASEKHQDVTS
UniProt P29372, whole entry, looked up: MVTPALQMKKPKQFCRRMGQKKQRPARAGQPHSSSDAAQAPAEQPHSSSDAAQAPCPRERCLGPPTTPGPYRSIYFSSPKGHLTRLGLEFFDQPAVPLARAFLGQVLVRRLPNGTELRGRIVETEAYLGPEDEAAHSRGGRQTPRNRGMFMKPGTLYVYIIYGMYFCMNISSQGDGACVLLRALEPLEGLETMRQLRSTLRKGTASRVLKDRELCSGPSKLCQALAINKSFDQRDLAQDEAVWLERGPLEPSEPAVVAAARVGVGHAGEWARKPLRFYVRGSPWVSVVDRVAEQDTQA
UniProt Q99797: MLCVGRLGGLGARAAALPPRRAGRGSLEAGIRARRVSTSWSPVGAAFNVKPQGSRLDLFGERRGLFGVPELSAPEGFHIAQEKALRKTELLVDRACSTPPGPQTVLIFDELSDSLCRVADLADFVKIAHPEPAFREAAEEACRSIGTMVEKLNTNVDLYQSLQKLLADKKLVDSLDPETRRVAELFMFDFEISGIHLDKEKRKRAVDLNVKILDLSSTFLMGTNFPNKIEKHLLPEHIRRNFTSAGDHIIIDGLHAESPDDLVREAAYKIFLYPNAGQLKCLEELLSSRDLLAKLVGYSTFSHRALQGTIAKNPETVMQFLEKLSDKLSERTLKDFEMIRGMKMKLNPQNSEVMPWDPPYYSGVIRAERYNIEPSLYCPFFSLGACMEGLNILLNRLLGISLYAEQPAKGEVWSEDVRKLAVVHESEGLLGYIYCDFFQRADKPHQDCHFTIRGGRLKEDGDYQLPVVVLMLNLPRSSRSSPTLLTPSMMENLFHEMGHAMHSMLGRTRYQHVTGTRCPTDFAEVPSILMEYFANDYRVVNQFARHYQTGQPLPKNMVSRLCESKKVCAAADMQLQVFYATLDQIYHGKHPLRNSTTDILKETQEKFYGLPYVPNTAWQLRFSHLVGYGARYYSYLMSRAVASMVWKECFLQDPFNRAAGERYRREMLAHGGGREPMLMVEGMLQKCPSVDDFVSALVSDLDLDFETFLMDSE
UniProt Q14149: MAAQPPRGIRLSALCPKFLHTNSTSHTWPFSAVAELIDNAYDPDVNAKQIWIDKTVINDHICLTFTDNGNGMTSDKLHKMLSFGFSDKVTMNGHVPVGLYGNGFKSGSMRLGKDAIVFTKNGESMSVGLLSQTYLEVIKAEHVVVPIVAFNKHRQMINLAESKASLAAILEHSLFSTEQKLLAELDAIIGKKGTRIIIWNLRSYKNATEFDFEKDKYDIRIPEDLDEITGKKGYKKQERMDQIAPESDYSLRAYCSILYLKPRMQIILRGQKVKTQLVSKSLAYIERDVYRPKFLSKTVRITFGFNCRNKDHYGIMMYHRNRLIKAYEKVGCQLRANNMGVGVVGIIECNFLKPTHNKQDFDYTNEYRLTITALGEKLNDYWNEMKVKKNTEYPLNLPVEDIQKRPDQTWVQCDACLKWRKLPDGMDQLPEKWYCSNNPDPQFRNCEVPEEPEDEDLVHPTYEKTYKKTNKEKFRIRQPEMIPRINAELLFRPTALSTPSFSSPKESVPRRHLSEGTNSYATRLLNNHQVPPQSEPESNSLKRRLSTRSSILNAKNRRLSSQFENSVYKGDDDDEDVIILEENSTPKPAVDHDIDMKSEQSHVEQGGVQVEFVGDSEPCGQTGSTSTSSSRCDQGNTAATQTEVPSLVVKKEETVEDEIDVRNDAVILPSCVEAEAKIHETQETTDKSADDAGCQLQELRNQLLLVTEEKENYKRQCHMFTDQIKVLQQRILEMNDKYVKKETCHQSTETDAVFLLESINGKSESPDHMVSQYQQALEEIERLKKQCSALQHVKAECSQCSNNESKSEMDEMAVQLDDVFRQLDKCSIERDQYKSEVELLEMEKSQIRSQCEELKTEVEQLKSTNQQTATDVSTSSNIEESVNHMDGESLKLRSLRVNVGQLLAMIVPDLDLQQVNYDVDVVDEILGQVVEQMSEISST
UniProt Q8TAP9: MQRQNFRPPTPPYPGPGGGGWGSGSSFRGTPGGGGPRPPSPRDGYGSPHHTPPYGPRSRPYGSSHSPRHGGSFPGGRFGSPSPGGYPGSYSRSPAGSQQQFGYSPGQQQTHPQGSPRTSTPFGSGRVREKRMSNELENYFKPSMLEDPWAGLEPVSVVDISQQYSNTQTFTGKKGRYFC
UniProt Q9NV56, whole entry, looked up: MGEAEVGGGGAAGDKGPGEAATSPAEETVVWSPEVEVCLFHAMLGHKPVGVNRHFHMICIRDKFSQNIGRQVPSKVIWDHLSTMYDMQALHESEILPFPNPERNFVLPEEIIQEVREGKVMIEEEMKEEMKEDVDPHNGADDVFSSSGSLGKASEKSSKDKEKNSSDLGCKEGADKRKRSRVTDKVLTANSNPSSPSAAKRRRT
UniProt O60291: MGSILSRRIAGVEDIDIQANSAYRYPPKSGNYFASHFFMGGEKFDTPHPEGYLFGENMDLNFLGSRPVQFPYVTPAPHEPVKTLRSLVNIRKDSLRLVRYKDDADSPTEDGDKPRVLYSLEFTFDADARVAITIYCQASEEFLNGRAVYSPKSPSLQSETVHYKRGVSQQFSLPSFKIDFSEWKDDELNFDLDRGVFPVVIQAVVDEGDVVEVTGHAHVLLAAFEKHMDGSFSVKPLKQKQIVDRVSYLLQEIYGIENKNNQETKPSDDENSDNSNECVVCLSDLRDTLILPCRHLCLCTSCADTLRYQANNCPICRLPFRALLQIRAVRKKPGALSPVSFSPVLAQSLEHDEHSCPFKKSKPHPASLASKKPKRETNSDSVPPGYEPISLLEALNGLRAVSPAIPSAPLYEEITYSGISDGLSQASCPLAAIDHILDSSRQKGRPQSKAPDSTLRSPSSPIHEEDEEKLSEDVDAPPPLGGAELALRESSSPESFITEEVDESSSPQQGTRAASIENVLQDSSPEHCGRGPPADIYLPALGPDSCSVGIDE
UniProt Q9NZB8: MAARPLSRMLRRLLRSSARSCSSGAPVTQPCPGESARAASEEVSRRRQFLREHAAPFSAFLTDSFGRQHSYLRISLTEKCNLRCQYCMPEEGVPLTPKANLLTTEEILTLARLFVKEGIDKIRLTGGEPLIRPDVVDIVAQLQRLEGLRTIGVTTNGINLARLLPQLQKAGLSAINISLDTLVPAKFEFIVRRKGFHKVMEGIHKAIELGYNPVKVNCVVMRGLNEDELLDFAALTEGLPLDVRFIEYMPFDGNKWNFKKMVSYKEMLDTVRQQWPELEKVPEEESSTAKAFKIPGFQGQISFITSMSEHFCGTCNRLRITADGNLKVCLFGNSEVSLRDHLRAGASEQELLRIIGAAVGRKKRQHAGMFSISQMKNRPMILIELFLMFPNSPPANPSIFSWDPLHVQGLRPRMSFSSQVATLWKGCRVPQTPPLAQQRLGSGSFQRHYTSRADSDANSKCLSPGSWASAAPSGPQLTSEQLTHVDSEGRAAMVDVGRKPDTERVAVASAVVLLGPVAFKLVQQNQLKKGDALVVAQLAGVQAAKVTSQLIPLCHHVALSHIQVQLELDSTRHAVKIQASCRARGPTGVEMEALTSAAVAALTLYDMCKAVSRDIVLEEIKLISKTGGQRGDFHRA

compound: CN1CCN(CCOc2cc(OC3CCOCC3)c3c(Nc4c(Cl)ccc5c4OCO5)ncnc3c2)CC1 [saracatinib]; test: log2 fold change, soluble protein after heating vs DMSO (PISA); higher = thermal stabilisation; K562 lysate, 10 uM; active = over 0.2 and 3.5 SD of the protein, either way, in both replicates (recomputed)
In short: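 K562 pellets were dounce-homogenised in PBS pH 7.4 containing 1 mM MgCl2, and the crude extract, at 1 mg/mL protein, was exposed to 10 μM compound for 30 min. Aliquots were heated for 3 min across 48°C-58°C, pooled, brought to 0.5% NP-40 at 4°C and spun at 21,000xg for 90 min, with the supernatant taken as soluble protein. TMTpro 16plex LC-MS/MS with equalised channel sums quantified that protein. Values are log-two fold changes in thermal stability relative to solvent controls, taken from duplicates.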

Target | log2 fold change
MKLN1 (UniProt Q9UL63) | inactive: 0.023
MICAL3 (UniProt Q7RTP6) | inactive: -0.002
MGST1 (UniProt P10620) | inactive: 0.068
MMADHC (UniProt Q9H3L0) | inactive: 0.022
MON1B (UniProt Q7L1V2) | inactive: 0.019
MRPL16 (UniProt Q9NX20) | inactive: -0.051
MOSPD2 (UniProt Q8NHP6) | inactive: 0.043
MON2 isoform 5 (UniProt Q7Z3U7) | inactive: -0.006
MGST2 (UniProt Q99735) | inactive: 0.005
MICAL2 (UniProt O94851) | inactive: -0.206
MOCOS (UniProt Q96EN8) | inactive: -0.001
MPG (UniProt P29372) | inactive: -0.002
MRPL1 (UniProt Q9BYD6) | inactive: -0.006
MRAS (UniProt O14807) | inactive: 0.117
MOB4 (UniProt Q9Y3A3) | inactive: 0.054
MIPEP (UniProt Q99797) | inactive: 0.001
MLST8 (UniProt Q9BVC4) | inactive: 0.075
MORC3 (UniProt Q14149) | inactive: 0.004
MPV17 (UniProt P39210) | inactive: -0.02

Target | log2 fold change
MICU2 (UniProt Q8IYU8) | inactive: 0.021
MOB3B (UniProt Q86TA1) | inactive: 0.007
MGA (UniProt Q8IWI9) | inactive: 0.074
MNX1 (UniProt P50219) | inactive: 0.078
MINDY1 isoform 3 (UniProt Q8N5J2) | inactive: 0.076
MRE11 isoform 3 (UniProt P49959) | inactive: -0.018
MRPL2 (UniProt Q5T653) | inactive: -0.047
MPLKIP (UniProt Q8TAP9) | inactive: -0.019
MMS22L (UniProt Q6ZRQ5) | inactive: 0.092
MRGBP (UniProt Q9NV56) | inactive: -0.017
MOCS2 (UniProt O96007) | inactive: 0.012
MKRN3 (UniProt Q13064) | inactive: -0.05
MGRN1 isoform 2 (UniProt O60291) | inactive: -0.006
MIF4GD isoform 3 (UniProt A9UHW6) | inactive: 0.02
MNT (UniProt Q99583) | inactive: -0.127
MKI67 (UniProt P46013) | inactive: 0.015
MOCS1 isoform 8 (UniProt Q9NZB8) | inactive: 0.006
MRM1 (UniProt Q6IN84) | inactive: -0.005
MITD1 (UniProt Q8WV92) | inactive: 0.024

Part of the list above, as comma-separated lines.
Target,log2 fold change
MMS22L (UniProt Q6ZRQ5),inactive: 0.092
MOCS2 (UniProt O96007),inactive: 0.012
MITD1 (UniProt Q8WV92),inactive: 0.024
